Assay results published in paper PMC9867837.
Construct, isoform or probe ends are uncertain for at least one entry. A weaker result is weaker than the reference pair of the same experiment. At least one verdict rests on a figure or table, not on a statement of the authors.

Sequences of proteins named here, by UniProt entry; tags and fusion partners are left off. Residues count along the entry.
UniProt P40763, 127-711 C328A: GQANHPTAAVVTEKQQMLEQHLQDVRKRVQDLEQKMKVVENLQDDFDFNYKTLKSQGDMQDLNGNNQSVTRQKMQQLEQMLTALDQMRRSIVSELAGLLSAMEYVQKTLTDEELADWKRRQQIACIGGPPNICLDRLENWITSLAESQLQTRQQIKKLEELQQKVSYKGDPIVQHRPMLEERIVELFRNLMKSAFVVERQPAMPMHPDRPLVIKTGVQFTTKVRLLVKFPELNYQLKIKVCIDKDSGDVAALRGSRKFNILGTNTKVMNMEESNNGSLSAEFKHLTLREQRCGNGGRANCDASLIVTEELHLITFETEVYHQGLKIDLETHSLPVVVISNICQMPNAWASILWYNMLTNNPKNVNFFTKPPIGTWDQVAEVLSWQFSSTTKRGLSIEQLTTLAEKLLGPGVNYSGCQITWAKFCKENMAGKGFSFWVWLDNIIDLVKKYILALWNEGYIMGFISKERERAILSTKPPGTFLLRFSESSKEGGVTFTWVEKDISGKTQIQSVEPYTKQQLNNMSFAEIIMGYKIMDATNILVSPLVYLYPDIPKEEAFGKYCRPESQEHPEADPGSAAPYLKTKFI
UniProt P40763, 127-711: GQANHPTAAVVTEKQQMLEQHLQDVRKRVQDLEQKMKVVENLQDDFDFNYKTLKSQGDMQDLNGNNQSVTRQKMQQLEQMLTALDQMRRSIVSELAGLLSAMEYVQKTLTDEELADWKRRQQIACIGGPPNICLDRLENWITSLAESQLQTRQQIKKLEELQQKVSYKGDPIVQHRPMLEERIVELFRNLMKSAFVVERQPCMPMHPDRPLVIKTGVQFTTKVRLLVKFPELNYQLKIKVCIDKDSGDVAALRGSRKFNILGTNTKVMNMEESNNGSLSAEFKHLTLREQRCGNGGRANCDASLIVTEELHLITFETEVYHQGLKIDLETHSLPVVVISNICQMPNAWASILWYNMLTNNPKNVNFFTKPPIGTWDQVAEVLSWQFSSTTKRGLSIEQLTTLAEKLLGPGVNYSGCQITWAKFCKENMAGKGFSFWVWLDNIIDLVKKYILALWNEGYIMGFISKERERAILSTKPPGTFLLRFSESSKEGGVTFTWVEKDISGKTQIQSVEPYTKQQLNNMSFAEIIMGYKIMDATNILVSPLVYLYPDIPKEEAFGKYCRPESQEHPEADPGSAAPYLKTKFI
UniProt P40763, 127-711 C542S: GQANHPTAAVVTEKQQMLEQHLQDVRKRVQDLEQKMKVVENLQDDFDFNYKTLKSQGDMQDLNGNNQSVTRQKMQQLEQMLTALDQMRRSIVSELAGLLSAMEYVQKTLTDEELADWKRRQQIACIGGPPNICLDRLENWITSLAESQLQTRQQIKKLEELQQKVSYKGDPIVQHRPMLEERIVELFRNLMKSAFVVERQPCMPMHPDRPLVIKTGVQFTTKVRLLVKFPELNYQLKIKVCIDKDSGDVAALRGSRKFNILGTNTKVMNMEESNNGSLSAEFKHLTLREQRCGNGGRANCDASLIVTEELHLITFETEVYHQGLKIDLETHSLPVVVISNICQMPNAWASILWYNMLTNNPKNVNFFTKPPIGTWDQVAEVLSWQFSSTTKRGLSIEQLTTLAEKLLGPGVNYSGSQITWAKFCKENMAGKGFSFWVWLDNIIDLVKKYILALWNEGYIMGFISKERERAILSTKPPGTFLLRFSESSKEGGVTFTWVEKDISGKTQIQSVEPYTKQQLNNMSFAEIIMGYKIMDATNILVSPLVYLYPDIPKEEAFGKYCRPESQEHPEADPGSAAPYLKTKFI
UniProt P40763, 127-711 C426A: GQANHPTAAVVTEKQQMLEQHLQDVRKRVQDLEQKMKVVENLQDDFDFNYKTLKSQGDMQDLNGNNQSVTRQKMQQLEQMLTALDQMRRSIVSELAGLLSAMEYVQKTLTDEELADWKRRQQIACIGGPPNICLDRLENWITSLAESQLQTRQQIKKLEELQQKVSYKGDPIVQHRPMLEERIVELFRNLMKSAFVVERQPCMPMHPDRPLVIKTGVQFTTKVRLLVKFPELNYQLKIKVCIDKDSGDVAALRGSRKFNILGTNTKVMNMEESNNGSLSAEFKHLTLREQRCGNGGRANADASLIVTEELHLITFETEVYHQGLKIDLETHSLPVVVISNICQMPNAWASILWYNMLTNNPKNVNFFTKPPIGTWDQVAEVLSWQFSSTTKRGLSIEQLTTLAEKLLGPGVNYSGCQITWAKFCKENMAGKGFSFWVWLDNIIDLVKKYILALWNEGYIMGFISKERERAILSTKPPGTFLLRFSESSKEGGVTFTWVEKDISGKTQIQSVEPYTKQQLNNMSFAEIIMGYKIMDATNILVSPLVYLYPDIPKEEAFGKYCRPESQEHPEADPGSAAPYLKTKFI
UniProt P40763, 127-711 C468A: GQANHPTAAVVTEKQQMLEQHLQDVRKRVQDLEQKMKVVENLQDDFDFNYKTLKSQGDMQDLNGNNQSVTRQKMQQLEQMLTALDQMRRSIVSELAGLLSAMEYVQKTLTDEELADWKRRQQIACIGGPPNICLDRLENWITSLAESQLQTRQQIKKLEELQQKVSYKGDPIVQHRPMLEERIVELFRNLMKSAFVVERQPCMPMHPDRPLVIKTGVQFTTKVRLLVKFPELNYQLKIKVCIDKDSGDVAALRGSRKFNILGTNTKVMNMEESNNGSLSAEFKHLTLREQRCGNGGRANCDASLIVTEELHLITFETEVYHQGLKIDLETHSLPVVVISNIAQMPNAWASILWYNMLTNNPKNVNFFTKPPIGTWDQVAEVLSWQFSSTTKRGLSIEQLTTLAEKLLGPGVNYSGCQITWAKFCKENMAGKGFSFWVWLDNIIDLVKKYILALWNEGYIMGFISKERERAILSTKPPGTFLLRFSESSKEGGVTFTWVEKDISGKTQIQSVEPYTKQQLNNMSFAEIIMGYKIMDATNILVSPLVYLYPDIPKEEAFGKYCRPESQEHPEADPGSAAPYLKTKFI

Key:
Experiment in all cases: EMSA
Conditions in all cases: EMSA: protein pre-incubated with H182 or DMSO 30 min at room temperature, then 32P-hSIE 30 min at 30 C, binding buffer, recombinant protein, residues 127-711, protein details: C-terminal 6xHis, label: 32P
pYStat3 C328A (human) = pYStat3 C328A (human) (UniProt P40763)
[1] = biological target: pYStat3 wild type (rStat3 core fragment) (human) (UniProt P40763)
pYStat3 C542S (human) = pYStat3 C542S (human) (UniProt P40763)
pYStat3 C426A (human) = pYStat3 C426A (human) (UniProt P40763)
pYStat3 C468A (human) = pYStat3 C468A (human) (UniProt P40763)
[2] = 3 uM H182, 30 min pre-incubation
[3] = 3 uM H182, 30 min pre-incubation (unaffected)

Measured: binding result

AGCTTCATTTCCCGTAAATCCCTA (double strand) [hSIE (m67 variant)]
binds more weakly: pYStat3 C328A (human); [2] | [1]; [2] | pYStat3 C542S (human); [2] | pYStat3 C426A (human); 10 uM H182, near complete inhibition (inhibitor IC50 6 uM) | pYStat3 C468A (human); 30 uM H182, inhibited (inhibitor IC50 40 uM)
binds: pYStat3 C328A (human); no inhibitor (10% DMSO) | [1]; no inhibitor (10% DMSO) | pYStat3 C542S (human); no inhibitor (10% DMSO) | pYStat3 C426A (human); [3] | pYStat3 C426A (human); no inhibitor (10% DMSO) | pYStat3 C468A (human); [3] | pYStat3 C468A (human); 10 uM H182, no effect (inhibitor IC50 40 uM) | pYStat3 C468A (human); no inhibitor (10% DMSO)
